# Source: US20240270728A1, “NEW SUBSTITUTED QUINOLINES AS FUNGICIDES” (BASF SE, priority 2021, published 2024)
# Some entries share one result that the patent states for a list of compounds. For some of these results: At least one compound was matched to its structure with a doubt left.
# Legend:
# Botrytis cinerea [1] = assay: Activity against the grey mold Botrytis cinerea in the microtiterplate test; assay type: cell-based; conditions: 31 ppm active substance; relative growth vs compound-free control (100%)
# Septoria tritici = assay: Activity against the leaf blotch on wheat caused by Septoria tritici in the microtiterplate test; assay type: cell-based; conditions: 31 ppm active substance; relative growth vs compound-free control (100%)
# Botrytis cinerea [2] = assay: Preventative fungicidal control of Botrytis cinerea on leaves of green pepper (250 ppm); assay type: in vivo; conditions: 250 ppm spray, inoculated next day, assessed after 5 days, untreated plants 90% infected
# Sclerotinia sclerotiorum [3] = assay: Preventative fungicidal control of white mold on oilseed rape caused by Sclerotinia sclerotiorum; assay type: in vivo; conditions: 100 g/ha, inoculated next day, assessed after 14 days, untreated plants 100% infected
# Botrytis cinerea [4] = assay: Long lasting control of Botrytis cinerea on leaves of green pepper (100 g/ha); assay type: in vivo; conditions: inoculated 7 days after treatment, assessed after 5 days, untreated plants 90% infected
# Sclerotinia sclerotiorum [5] = assay: Preventative fungicidal control of white mold on soybean caused by Sclerotinia sclerotiorum; assay type: in vivo; conditions: 250 ppm spray, inoculated next day, assessed after 6 days, untreated plants 90% infected
# Botrytis cinerea [6] = assay: Preventative fungicidal control of Botrytis cinerea on leaves of green pepper (100 g/ha); assay type: in vivo; conditions: inoculated next day, assessed after 5 days, untreated plants 100% infected
# Botrytis cinerea [7] = assay: Long lasting control of Botrytis cinerea on leaves of green pepper (250 ppm); assay type: in vivo; conditions: 250 ppm spray, inoculated 7 days after treatment, assessed after 5 days, untreated plants 90% infected
# Microdochium nivale = assay: Activity against Microdochium nivale in the microtiterplate test; assay type: cell-based; conditions: 31 ppm active substance; DOB media pH 7; relative growth vs compound-free control (100%)
# Leptosphaeria maculans = assay: Activity against Leptosphaeria maculans in the microtiterplate test; assay type: cell-based; conditions: 31 ppm active substance; DOB media pH 7; relative growth vs compound-free control (100%)
structure (smiles),measurement,setting,value
"Fc1cccc2cc(C3=NC4(CCC4)Oc4ccccc43)cnc12 [Ex-1, 4-(8-fluoro-3-quinolyl)spiro[1,3-benzoxazine-2,1′-cyclobutane]]",growth of the pathogen,Botrytis cinerea [1],≤ 17%
same,growth of the pathogen,Septoria tritici,≤ 18%
same,growth of the pathogen (% diseased leaf area),Botrytis cinerea [2],at most 8%
same,growth of the pathogen (% diseased leaf area),Sclerotinia sclerotiorum [3],at most 13%
same,growth of the pathogen (% diseased leaf area),Botrytis cinerea [4],at most 13%
Fc1cccc2cc(C3=NC4(CCCC4)Oc4ccccc43)cnc12 [Ex-2],growth of the pathogen,Botrytis cinerea [1],≤ 17%
same,growth of the pathogen,Septoria tritici,≤ 18%
same,growth of the pathogen (% diseased leaf area),Botrytis cinerea [2],at most 8%
same,growth of the pathogen (% diseased leaf area),Sclerotinia sclerotiorum [5],at most 15%
same,growth of the pathogen (% diseased leaf area),Sclerotinia sclerotiorum [3],at most 13%
same,growth of the pathogen (% diseased leaf area),Botrytis cinerea [6],at most 15%
Cc1ccc2c(c1C)OC1(CCC1)N=C2c1cnc2c(F)cccc2c1 [Ex-3],growth of the pathogen,Botrytis cinerea [1],≤ 17%
same,growth of the pathogen (% diseased leaf area),Botrytis cinerea [2],at most 8%
same,growth of the pathogen (% diseased leaf area),Botrytis cinerea [7],at most 16%
same,growth of the pathogen (% diseased leaf area),Sclerotinia sclerotiorum [3],at most 13%
same,growth of the pathogen (% diseased leaf area),Botrytis cinerea [6],at most 15%
CC(C)(C)C1(C)N=C(c2cnc3c(F)cccc3c2)c2ccccc2O1 (stereo not shown) [Ex-4],growth of the pathogen,Botrytis cinerea [1],≤ 17%
same,growth of the pathogen (% diseased leaf area),Botrytis cinerea [2],at most 8%
same,growth of the pathogen (% diseased leaf area),Sclerotinia sclerotiorum [3],at most 13%
CC1CCCC12N=C(c1cnc3c(F)cccc3c1)c1ccccc1O2 (stereo not shown) [Ex-5],growth of the pathogen,Botrytis cinerea [1],≤ 17%
same,growth of the pathogen,Septoria tritici,≤ 18%
same,growth of the pathogen (% diseased leaf area),Botrytis cinerea [2],at most 8%
same,growth of the pathogen (% diseased leaf area),Botrytis cinerea [7],at most 16%
same,growth of the pathogen (% diseased leaf area),Sclerotinia sclerotiorum [3],at most 13%
same,growth of the pathogen (% diseased leaf area),Botrytis cinerea [6],at most 15%
CC(C)CC1(C)N=C(c2cnc3c(F)cccc3c2)c2ccccc2O1 (stereo not shown) [Ex-7],growth of the pathogen,Botrytis cinerea [1],≤ 17%
same,growth of the pathogen,Septoria tritici,≤ 18%
same,growth of the pathogen (% diseased leaf area),Botrytis cinerea [2],at most 8%
same,growth of the pathogen (% diseased leaf area),Botrytis cinerea [7],at most 16%
same,growth of the pathogen (% diseased leaf area),Sclerotinia sclerotiorum [3],at most 13%
same,growth of the pathogen (% diseased leaf area),Botrytis cinerea [6],at most 15%
CC(C)(C)CC1(C)N=C(c2cnc3c(F)cccc3c2)c2ccccc2O1 (stereo not shown) [Ex-8],growth of the pathogen,Botrytis cinerea [1],≤ 17%
same,growth of the pathogen,Septoria tritici,≤ 18%
same,growth of the pathogen (% diseased leaf area),Botrytis cinerea [2],at most 8%
same,growth of the pathogen (% diseased leaf area),Botrytis cinerea [7],at most 16%
CC(C)C1CCCC12N=C(c1cnc3c(F)cccc3c1)c1ccccc1O2 (stereo not shown) [Ex-9],growth of the pathogen,Botrytis cinerea [1],≤ 17%
same,growth of the pathogen (% diseased leaf area),Sclerotinia sclerotiorum [3],at most 13%
same,growth of the pathogen (% diseased leaf area),Botrytis cinerea [6],at most 15%
same,growth of the pathogen (% diseased leaf area),Botrytis cinerea [4],at most 13%
CC(C)(C)C1N=C(c2cnc3c(F)cccc3c2)c2ccccc2O1 (stereo not shown) [Ex-10],growth of the pathogen,Botrytis cinerea [1],≤ 17%
Fc1cccc2cc(C3=NC4(CCCCC4)Oc4ccccc43)cnc12 [Ex-11],growth of the pathogen,Botrytis cinerea [1],≤ 17%
same,growth of the pathogen (% diseased leaf area),Sclerotinia sclerotiorum [3],at most 13%
same,growth of the pathogen (% diseased leaf area),Botrytis cinerea [6],at most 15%
CC(C)(C)c1cccc2c1OC1(CCC1)N=C2c1cnc2c(F)cccc2c1 [Ex-13],growth of the pathogen,Botrytis cinerea [1],≤ 17%
same,growth of the pathogen,Septoria tritici,≤ 18%
Fc1cccc2cc(C3=NC4(COC4)Oc4ccccc43)cnc12 [Ex-14],growth of the pathogen,Botrytis cinerea [1],≤ 17%
Fc1cccc2cc(C3=NC4(CCOC4)Oc4ccccc43)cnc12 (stereo not shown) [Ex-15],growth of the pathogen,Botrytis cinerea [1],≤ 17%
same,growth of the pathogen,Septoria tritici,≤ 18%
same,growth of the pathogen (% diseased leaf area),Botrytis cinerea [2],at most 8%
same,growth of the pathogen (% diseased leaf area),Sclerotinia sclerotiorum [3],at most 13%
same,growth of the pathogen (% diseased leaf area),Botrytis cinerea [6],at most 15%
same,growth of the pathogen (% diseased leaf area),Botrytis cinerea [4],at most 13%
CC(C)(C)c1cccc2c1OC(C)(C(C)(C)C)N=C2c1cnc2c(F)cccc2c1 (stereo not shown) [Ex-16],growth of the pathogen (% diseased leaf area),Botrytis cinerea [2],at most 8%
CC(C)CC1(C)N=C(c2cnc3c(F)cccc3c2)c2cccc(F)c2O1 (stereo not shown) [Ex-50],growth of the pathogen,Microdochium nivale,≤ 19%
same,growth of the pathogen,Leptosphaeria maculans,≤ 16%
Fc1cccc2cc(C3=NC4(CCC4)Oc4c(Br)cccc43)cnc12 [Ex-53],growth of the pathogen,Botrytis cinerea [1],≤ 17%
CC(C)(C)CC1CC2(C1)N=C(c1cnc3c(F)cccc3c1)c1ccccc1O2 (stereo not shown) [Ex-58],growth of the pathogen,Botrytis cinerea [1],≤ 17%
CC(C)CC1CC2(C1)N=C(c1cnc3c(F)cccc3c1)c1ccccc1O2 (stereo not shown) [Ex-59],growth of the pathogen,Botrytis cinerea [1],≤ 17%
same,growth of the pathogen (% diseased leaf area),Sclerotinia sclerotiorum [3],at most 13%
CCC1CC2(C1)N=C(c1cnc3c(F)cccc3c1)c1ccccc1O2 (stereo not shown) [Ex-60],growth of the pathogen,Botrytis cinerea [1],≤ 17%
CCC1CC2(C1)N=C(c1cnc3c(F)cccc3c1)c1ccc(C(F)(F)F)cc1O2 (stereo not shown) [Ex-61],growth of the pathogen,Septoria tritici,≤ 18%
